Test results reported in patent US20170129957A1 (BERGENBIO ASA, published 2017).
Results are given in words; binding and its absence hold for the method and conditions named. Some entries that bind do so weakly or less than the wild type.

Legend:
[1] = biological target: rhesus monkey Axl-Fc chimeric protein (rhesus monkey) (UniProt G7NLI7); experiment: SPR (Biacore 3000, 25 °C), rhe-Axl-Fc immobilised on CM5 chip, 1H12 at 10 µg/mL
[2] = biological target: rhesus monkey Axl-Fc chimeric protein (rhesus monkey) (UniProt G7NLI7); experiment: SPR (Biacore 3000), rhe-Axl-Fc immobilised on CM5 at 1,515.9 RU, MAb 1H12 injected at 10 µg/mL, 25 °C

binding [1]: binds
binding [2]: binds
B1: mouse anti-Axl monoclonal antibody 1H12 (antibody, V domains shown)
VH: EVKLVESGGDLVKPGGSLKLSCAASGFTFSSYGMSWVRQTPDKRLEWVATISSGGSYTYYPDSVKGRFTISRDNAKNTLYLQMSSLKSEDTAMYYCARHPIYYTYDDTMDYWGQGTSVTVSS
VL: DIVLTQSPAIMAASPGEKVTMTCSASSSVSSGNFHWYQQKPGTSPKLWIYRTSNLASGVPARFSGSGSGTSYSLTISSMEAEDAATYYCQQWSGYPWTFGGGTKLEIK
notes: also called MAb 1H12; m 1H12
